From the supplement of paper PMC12819154, “High-throughput peptide-centric local stability assay extends protein–ligand identification to membrane proteins, tissues and bacteria” (Nature Structural & Molecular Biology, 2025)
The list shows a part of the results. Most entries show no effect beyond the scatter of the controls.

Amino acid sequences for entries named in this document (tags omitted). A change or cut given only in a name is not applied to a line headed by its entry.
UniProt P78559: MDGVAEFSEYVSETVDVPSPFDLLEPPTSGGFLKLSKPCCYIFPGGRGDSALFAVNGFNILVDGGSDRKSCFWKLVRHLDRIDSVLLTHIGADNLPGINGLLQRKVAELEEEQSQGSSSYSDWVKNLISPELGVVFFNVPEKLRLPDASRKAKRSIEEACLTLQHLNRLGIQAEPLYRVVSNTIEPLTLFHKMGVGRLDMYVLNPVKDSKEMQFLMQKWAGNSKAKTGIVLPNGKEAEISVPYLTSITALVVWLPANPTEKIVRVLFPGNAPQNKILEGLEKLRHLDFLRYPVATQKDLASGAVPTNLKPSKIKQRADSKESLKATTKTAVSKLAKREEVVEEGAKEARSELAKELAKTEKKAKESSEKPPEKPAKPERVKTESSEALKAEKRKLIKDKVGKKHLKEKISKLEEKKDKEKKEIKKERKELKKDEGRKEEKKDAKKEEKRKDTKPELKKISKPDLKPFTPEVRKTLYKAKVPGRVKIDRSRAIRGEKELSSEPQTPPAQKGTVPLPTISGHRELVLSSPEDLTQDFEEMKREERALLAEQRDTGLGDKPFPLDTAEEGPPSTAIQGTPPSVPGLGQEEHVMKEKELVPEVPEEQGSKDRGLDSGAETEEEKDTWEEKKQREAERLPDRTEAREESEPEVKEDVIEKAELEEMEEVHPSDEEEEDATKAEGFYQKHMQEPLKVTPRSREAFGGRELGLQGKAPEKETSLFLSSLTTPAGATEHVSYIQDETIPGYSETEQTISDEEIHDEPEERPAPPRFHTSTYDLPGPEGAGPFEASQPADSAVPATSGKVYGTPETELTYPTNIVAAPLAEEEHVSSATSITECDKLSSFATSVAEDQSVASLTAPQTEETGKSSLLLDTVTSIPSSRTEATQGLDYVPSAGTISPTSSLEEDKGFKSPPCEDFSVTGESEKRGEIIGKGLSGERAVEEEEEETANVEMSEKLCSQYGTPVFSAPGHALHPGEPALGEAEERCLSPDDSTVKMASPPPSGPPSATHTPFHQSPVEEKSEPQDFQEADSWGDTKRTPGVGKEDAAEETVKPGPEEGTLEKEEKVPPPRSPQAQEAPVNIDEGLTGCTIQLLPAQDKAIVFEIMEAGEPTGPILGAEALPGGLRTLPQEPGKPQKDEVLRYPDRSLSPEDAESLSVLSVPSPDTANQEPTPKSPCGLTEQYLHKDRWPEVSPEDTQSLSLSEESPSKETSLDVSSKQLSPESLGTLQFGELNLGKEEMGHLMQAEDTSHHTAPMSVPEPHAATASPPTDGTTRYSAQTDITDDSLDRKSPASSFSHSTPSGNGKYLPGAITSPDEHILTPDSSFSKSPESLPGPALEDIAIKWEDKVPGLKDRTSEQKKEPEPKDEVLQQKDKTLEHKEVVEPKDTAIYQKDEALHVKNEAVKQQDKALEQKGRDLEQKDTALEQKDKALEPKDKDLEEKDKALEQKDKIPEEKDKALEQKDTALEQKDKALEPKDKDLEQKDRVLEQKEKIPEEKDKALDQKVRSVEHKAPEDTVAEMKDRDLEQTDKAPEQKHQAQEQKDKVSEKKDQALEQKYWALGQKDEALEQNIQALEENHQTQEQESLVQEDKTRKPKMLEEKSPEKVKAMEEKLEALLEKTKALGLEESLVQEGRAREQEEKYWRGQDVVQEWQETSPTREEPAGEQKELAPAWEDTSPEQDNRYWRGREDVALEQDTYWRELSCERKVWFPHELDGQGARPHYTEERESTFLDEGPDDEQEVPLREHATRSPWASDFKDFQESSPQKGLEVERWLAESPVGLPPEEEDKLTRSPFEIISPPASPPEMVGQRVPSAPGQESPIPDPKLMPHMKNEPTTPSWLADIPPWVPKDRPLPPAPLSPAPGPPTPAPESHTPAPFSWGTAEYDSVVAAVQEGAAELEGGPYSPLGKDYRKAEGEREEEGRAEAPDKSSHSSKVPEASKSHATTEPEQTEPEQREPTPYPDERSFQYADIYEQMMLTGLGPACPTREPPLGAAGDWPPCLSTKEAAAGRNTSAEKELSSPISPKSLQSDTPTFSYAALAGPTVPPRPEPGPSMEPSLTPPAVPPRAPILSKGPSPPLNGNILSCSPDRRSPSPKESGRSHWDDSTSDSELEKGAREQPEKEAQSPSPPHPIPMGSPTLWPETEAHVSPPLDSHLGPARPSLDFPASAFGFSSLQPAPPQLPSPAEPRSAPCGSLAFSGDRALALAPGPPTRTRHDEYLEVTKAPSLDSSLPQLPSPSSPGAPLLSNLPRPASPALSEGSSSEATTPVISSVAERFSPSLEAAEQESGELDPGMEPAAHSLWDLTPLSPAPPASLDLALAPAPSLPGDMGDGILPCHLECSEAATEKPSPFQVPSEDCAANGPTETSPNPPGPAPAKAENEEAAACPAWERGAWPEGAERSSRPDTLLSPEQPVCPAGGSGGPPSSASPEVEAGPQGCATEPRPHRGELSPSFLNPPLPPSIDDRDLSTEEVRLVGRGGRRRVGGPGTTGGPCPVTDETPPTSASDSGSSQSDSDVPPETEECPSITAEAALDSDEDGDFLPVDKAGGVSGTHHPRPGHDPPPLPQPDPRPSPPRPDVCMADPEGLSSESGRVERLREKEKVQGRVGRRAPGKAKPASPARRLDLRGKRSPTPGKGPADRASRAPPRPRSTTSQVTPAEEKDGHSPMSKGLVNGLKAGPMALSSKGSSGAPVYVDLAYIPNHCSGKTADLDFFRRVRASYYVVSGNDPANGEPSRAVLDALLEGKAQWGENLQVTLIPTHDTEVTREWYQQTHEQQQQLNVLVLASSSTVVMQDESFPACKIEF
UniProt P61163, whole entry: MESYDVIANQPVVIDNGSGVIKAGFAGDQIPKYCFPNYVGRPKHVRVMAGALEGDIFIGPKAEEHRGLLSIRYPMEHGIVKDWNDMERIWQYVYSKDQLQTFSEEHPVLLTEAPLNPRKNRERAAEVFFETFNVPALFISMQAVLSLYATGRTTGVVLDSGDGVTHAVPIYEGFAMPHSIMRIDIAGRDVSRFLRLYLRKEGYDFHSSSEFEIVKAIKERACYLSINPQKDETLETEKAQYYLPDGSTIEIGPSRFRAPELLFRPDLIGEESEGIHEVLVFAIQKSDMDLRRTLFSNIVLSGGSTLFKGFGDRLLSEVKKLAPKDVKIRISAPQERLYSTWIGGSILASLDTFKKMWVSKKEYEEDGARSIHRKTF
UniProt P61088: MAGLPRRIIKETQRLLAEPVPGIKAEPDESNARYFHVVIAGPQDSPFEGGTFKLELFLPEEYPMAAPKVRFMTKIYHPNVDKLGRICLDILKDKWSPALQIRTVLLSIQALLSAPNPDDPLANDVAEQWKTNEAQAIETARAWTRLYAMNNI
UniProt P62879, whole entry: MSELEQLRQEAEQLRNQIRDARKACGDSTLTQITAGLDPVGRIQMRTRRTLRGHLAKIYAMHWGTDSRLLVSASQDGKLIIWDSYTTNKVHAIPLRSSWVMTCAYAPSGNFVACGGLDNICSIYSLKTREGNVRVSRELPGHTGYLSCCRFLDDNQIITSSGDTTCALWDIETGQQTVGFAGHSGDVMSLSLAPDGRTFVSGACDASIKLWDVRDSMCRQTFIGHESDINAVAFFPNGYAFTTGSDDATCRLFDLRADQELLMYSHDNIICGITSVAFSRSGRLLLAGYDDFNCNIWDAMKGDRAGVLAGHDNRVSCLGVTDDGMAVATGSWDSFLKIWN
UniProt P55957: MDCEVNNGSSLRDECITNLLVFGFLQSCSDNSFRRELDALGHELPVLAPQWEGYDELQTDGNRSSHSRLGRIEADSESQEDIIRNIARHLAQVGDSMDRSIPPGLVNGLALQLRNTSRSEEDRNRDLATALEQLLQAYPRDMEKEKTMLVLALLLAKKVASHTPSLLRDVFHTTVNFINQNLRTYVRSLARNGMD
UniProt P56377: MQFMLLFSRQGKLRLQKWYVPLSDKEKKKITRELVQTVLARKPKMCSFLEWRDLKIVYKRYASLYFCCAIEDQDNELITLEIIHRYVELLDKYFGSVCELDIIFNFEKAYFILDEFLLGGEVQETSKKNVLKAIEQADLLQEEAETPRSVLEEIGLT
UniProt P55347: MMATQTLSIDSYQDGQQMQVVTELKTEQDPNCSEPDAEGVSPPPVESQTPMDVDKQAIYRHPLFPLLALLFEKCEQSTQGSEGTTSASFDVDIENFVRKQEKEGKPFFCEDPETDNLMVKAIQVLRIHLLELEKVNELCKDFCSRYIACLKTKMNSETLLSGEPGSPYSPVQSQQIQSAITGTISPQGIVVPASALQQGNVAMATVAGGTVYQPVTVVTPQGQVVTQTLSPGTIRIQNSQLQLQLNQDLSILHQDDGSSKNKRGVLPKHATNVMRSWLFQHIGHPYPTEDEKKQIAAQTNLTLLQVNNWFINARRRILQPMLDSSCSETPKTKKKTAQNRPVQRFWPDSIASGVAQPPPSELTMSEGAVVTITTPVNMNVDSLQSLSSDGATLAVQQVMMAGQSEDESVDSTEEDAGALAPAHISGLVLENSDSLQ
UniProt P57764: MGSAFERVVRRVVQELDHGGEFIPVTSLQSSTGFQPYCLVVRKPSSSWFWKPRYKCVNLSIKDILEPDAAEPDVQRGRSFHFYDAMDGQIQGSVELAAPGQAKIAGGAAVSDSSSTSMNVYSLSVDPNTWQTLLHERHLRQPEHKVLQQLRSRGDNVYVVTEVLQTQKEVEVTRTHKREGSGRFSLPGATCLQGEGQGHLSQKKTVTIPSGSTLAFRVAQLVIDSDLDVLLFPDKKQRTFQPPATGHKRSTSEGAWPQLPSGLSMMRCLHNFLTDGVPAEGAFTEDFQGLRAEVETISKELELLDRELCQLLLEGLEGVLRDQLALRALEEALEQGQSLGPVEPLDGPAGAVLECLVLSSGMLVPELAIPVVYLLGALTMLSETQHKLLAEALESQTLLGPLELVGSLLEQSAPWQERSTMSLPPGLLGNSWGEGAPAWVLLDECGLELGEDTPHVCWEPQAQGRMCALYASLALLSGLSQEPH
UniProt P84101: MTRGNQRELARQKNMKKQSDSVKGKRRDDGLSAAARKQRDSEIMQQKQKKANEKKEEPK
UniProt P67809, whole entry: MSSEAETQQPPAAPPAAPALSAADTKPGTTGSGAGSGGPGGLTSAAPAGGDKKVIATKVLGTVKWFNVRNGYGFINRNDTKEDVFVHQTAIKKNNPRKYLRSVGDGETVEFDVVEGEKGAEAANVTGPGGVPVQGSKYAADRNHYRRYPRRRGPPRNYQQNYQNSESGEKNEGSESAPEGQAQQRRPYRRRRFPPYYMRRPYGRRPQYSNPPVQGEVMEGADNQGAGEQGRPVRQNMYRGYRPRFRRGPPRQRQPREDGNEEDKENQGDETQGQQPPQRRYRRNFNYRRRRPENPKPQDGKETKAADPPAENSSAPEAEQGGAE
UniProt P81877: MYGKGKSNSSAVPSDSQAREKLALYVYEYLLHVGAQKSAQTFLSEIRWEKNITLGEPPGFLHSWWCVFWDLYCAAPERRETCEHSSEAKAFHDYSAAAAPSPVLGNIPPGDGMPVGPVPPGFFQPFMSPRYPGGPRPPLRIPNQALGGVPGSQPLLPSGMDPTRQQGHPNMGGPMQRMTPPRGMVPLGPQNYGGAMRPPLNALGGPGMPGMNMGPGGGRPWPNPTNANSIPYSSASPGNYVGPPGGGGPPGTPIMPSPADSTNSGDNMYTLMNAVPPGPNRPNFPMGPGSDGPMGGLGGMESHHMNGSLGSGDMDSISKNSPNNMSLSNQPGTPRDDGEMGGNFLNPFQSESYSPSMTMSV
UniProt P55210: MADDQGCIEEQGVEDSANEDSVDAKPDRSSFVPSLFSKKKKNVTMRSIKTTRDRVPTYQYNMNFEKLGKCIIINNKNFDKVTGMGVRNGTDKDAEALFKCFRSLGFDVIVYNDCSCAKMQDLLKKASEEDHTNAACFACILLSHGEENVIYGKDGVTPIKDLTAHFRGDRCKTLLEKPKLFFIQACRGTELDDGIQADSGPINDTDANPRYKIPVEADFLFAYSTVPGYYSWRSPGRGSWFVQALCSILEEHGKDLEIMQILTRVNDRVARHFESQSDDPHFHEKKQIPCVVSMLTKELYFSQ
UniProt P61204: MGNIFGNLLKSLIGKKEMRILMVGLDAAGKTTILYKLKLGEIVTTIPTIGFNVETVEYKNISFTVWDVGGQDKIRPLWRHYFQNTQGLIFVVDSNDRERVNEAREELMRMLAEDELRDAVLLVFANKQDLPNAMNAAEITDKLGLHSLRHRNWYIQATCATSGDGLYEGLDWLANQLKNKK
UniProt P61981: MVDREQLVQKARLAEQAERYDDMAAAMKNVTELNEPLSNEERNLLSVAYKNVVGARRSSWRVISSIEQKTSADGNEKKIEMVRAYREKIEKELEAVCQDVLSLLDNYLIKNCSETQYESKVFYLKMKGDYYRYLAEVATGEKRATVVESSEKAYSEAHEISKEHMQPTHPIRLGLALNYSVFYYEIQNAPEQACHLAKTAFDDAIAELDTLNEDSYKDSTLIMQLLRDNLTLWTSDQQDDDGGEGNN
UniProt P61968: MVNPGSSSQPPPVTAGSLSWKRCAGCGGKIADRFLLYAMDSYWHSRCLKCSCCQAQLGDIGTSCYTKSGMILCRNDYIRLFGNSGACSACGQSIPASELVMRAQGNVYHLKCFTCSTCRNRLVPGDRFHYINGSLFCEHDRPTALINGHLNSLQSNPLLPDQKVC

What follows are targets tested with CN[C@@H]1C[C@H]2O[C@@](C)([C@@H]1OC)n1c3ccccc3c3c4c(c5c6ccccc6n2c5c31)C(=O)NC4 [staurosporine] (assay: log2 fold change of tryptic peptide abundance, ligand vs vehicle (limited proteolysis) (log2 ratio); higher = more trypsin-susceptible (destabilized)). Settings: ligand concentration: 20 uM; sample: K562 cleared lysate; digestion: 4 min, 22 C (HT-PELSA RT4min, Orbitrap Astral).
Work on “EEF1A1 (peptide sequence: QTVAVGVIK, peptide start residue: 431) (UniProt P68104)” yielded a log2 fold change of -0.166. For “UniProt P61129 (peptide sequence: FDLHHANAGTNVK, peptide start residue: 805)”, the log2 fold change was 0.791. In the case of “UniProt P62877 (peptide sequence: QVCPLDNR, peptide start residue: 92)”, the log2 fold change is reported as -0.0559. In the case of “MRPS5 (peptide sequence: GALAETGAGAK, peptide start residue: 101) (UniProt P82675)”, the log2 fold change is reported as -0.165. “UniProt P78559 (peptide sequence: GREDVALEQDTYWR, peptide start residue: 1685)” was tested, and the log2 fold change was -0.248. “UniProt P84098 (peptide sequence: LIKDGLIIR, peptide start residue: 44)” was tested, and the log2 fold change was -0.138. Work on “UniProt P61163 (peptide sequence: YCFPNYVGRPK, peptide start residue: 33)” yielded a log2 fold change of 0.206. “UniProt P61088 (peptide sequence: ICLDILKDK, peptide start residue: 86)” gave a log2 fold change of 0.265. Target “UniProt P62491 (peptide sequence: ENDMSPSNNVVPIHVPPTTENKPK, peptide start residue: 186)” has a log2 fold change of -0.327. “COG7 (peptide sequence: FLADDFDVK, peptide start residue: 6) (UniProt P83436)” gave a log2 fold change of 0.206. “UniProt P62879 (peptide sequence: ACGDSTLTQITAGLDPVGR, peptide start residue: 24)” showed a log2 fold change of 0.213. “BID (peptide sequence: HLAQVGDSMDR, peptide start residue: 89) (UniProt P55957)” was tested, and the log2 fold change was 0.192. “ARPP19 (peptide sequence: YPHLGQKPGGSDFLR, peptide start residue: 36) (UniProt P56211)” showed a log2 fold change of -0.0521. “UniProt P55916 (peptide sequence: SDRKYSGTMDAYR, peptide start residue: 155)” showed a log2 fold change of 0.164. “AP1S2 (peptide sequence: SVLEEIGLT, peptide start residue: 149) (UniProt P56377)” showed a log2 fold change of -0.122. Work on “INHBE (peptide sequence: ITHPPPQAALTR, peptide start residue: 63) (UniProt P58166)” yielded a log2 fold change of 0.883. In the case of “PKNOX1 (peptide sequence: SWLFQHIGHPYPTEDEKK, peptide start residue: 276) (UniProt P55347)”, the log2 fold change is reported as -0.153. “GSDMD (peptide sequence: STSEGAWPQLPSGLSMMR, peptide start residue: 250) (UniProt P57764)” gave a log2 fold change of 0.17. For “RPL10A (peptide sequence: FSVCVLGDQQHCDEAK, peptide start residue: 63) (UniProt P62906)”, the log2 fold change was -0.221. “UniProt P84101 (peptide sequence: RDDGLSAAAR, peptide start residue: 27)” showed a log2 fold change of -0.159. In the case of “UniProt P61160 (peptide sequence: ILLTEPPMNPTKNR, peptide start residue: 107)”, the log2 fold change is reported as 0.435. Target “UniProt P62873 (peptide sequence: LFVSGACDASAK, peptide start residue: 198)” has a log2 fold change of -0.0655. With “YBX1 (peptide sequence: VIATKVLGTVKWFNVR, peptide start residue: 54) (UniProt P67809)” the log2 fold change was 0.528. “CORO7 (peptide sequence: KEELLNAMVAK, peptide start residue: 893) (UniProt P57737)” showed a log2 fold change of 0.211. “SSBP2 (peptide sequence: ETCEHSSEAK, peptide start residue: 80) (UniProt P81877)” was tested, and the log2 fold change was -0.242. “UniProt P60763 (peptide sequence: AVLCPPPVK, peptide start residue: 175)” was tested, and the log2 fold change was 0.0492. “BLOC1S1 (peptide sequence: TLQVQAAQFAK, peptide start residue: 90) (UniProt P78537)” was tested, and the log2 fold change was 0.15. Target “CASP7 (peptide sequence: HFESQSDDPHFHEKK, peptide start residue: 272) (UniProt P55210)” has a log2 fold change of 0.736. In the case of “ARF3 (peptide sequence: ILMVGLDAAGK, peptide start residue: 20) (UniProt P61204)”, the log2 fold change is reported as 0.205. In the case of “KLF3 (peptide sequence: SDHLALHR, peptide start residue: 389) (UniProt P57682)”, the log2 fold change is reported as 0.427. With “UniProt P61981 (peptide sequence: EHMQPTHPIR, peptide start residue: 163)” the log2 fold change was 0.473. Target “ZNF280A (peptide sequence: AIMPVSLSEGR, peptide start residue: 99) (UniProt P59817)” has a log2 fold change of 0.191. “MRPS15 (peptide sequence: NTNYDVFEK, peptide start residue: 172) (UniProt P82914)” showed a log2 fold change of -0.211. With “LMO4 (peptide sequence: CFTCSTCR, peptide start residue: 112) (UniProt P61968)” the log2 fold change was 0.421. “UniProt P62072 (peptide sequence: EAELSKGESVCLDR, peptide start residue: 40)” showed a log2 fold change of -0.258.
